Results: PubChem BioAssay AID2685 (National Center for Advancing Translational Sciences (NCATS), 2010)
Some of the results follow. The main result of the screen is listed elsewhere. These columns were measured beside it and carry no call. The list favours compounds with an active or inconclusive main result. Words in brackets tell the shape of the fitted curve; partial curves, single points and poor fits give uncertain potencies.

Experiment: qHTS Assay for Lipid Storage Modulators in Drosophila S3 Cells;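 on cell number change: cells counted by Cell Tracker Red CMTPX staining in the red channel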
Details: BODIPY lipid droplet fluorescence, 18-24 h; for cell number change: measured here: cell count max response, cells fed with added oleic acid
Procedure, shortened: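 Laser-scanning cytometry quantifies lipid droplet accumulation (500–530 nm total intensity; droplet/cell object ratio) in oleic acid-fed (400 uM added) Drosophila S3 cells treated with a concentration series. 20 uM Triacsin C defined 100% inhibition.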

[1] = measured here: lipid fluorescence (Fed channel) AC50, cells fed with added oleic acid
[2] = measured here: cell number channel AC50, cells fed with added oleic acid

SMILES	cell number change [%]	AC50 [1]	AC50 [2]
O=C(O)C1CCC(=O)N1C(=O)OCc1ccccc1 (stereo unspecified)	17	29.1 µM [falling, partial curve, poor fit]	
COc1cc(C(=O)N2CCN(c3ccccc3OC)CC2)c([N+](=O)[O-])cc1OC	-2.98	0.0058 µM [falling, full curve, poor fit]	0.0058 µM [falling, full curve, poor fit]
Cc1cc(N2CCOCC2)ccc1/C=C1\SC(=O)N(C(C)C)C1=O	29.6		
O=C1N=C(N2CCCC2)S/C1=C\c1cn[nH]c1-c1ccccc1	4.18	23.1 µM [rising, partial curve]	
O/N=C(/c1ccc(F)cc1)C1CC1c1c(F)cccc1Cl (stereo unspecified)	-40.2	29.1 µM [falling, single point]	29.1 µM [falling, single point]
O=C(COc1ccccc1)Nc1ccccc1C(=O)NC1CC1	21.9	0.517 µM [rising, partial curve]	0.291 µM [rising, full curve, poor fit]
Cc1ccc(NC(=O)CCC(=O)N/N=C/c2ccc([N+](=O)[O-])o2)cc1C	-17.4	32.6 µM [falling, single point]	
CCn1c(SCc2ccccc2F)nnc1-c1ccncc1	19.1	9.2 µM [rising, partial curve]	
CSCCC(NC(=O)c1ccc([N+](=O)[O-])cc1Cl)C(=O)OCC(=O)NC1CCCC(C)C1C (stereo unspecified)			7.31 µM [falling, single point]
O=C(Nc1nnc(SCc2ccccc2)s1)c1cccc([N+](=O)[O-])c1	16.3	0.116 µM [rising, full curve, poor fit]	
CCCn1c(C(C)Nc2nc(-c3ccc(OC)cc3)cs2)nc2ccccc21 (stereo unspecified)	19.7	29.1 µM [rising, partial curve]	
O=C(CCC1CCN(C(=O)Cc2c(F)cccc2F)CC1)NC1CC1	9.24		2.31 µM [rising, partial curve, poor fit]
COC(=O)COc1ccc(NS(=O)(=O)c2cccc([N+](=O)[O-])c2)cc1	25.7		
COc1cc(NC(=O)C2CCCCC2)c(OC)cc1NC(=O)c1ccccc1	-32.5		25.9 µM [falling, single point]
CC(C)COc1ccc(C(=O)N(CC(=O)Nc2ccccc2C(F)(F)F)Cc2ccco2)cc1	24.2	0.651 µM [rising, full curve, poor fit]	
O=C(NCCc1ccc(Cl)cc1)c1ncn[nH]1	-9.12	29.1 µM [falling, single point]	
Cc1ccc(Cn2ncn3c(cc4ccccc43)c2=O)cc1	-30.2		32.6 µM [falling, single point]
CCn1c(SCC(=O)Nc2cc(C(C)(C)C)nn2-c2ccccc2)nnc1-c1cccs1	45.3	0.517 µM [rising, full curve]	1.3 µM [rising, full curve]
CCOC(=O)/C(=C\C=C1/Sc2ccccc2N1CC)C(C)=O	-38.2	18.4 µM [falling, single point]	18.4 µM [falling, single point]

Among those listed so far, these have four or more nitrogen atoms.
SMILES	cell number change [%]	AC50 [1]	AC50 [2]
O=C1N=C(N2CCCC2)S/C1=C\c1cn[nH]c1-c1ccccc1	4.18	23.1 µM [rising, partial curve]	
Cc1ccc(NC(=O)CCC(=O)N/N=C/c2ccc([N+](=O)[O-])o2)cc1C	-17.4	32.6 µM [falling, single point]	
CCn1c(SCc2ccccc2F)nnc1-c1ccncc1	19.1	9.2 µM [rising, partial curve]	
O=C(Nc1nnc(SCc2ccccc2)s1)c1cccc([N+](=O)[O-])c1	16.3	0.116 µM [rising, full curve, poor fit]	
CCCn1c(C(C)Nc2nc(-c3ccc(OC)cc3)cs2)nc2ccccc21 (stereo unspecified)	19.7	29.1 µM [rising, partial curve]	
O=C(NCCc1ccc(Cl)cc1)c1ncn[nH]1	-9.12	29.1 µM [falling, single point]	
CCn1c(SCC(=O)Nc2cc(C(C)(C)C)nn2-c2ccccc2)nnc1-c1cccs1	45.3	0.517 µM [rising, full curve]	1.3 µM [rising, full curve]

Continued:

SMILES	cell number change [%]	AC50 [1]	AC50 [2]
Cc1nc(N2CCN(C(=O)c3ccco3)CC2)[nH]c(=O)c1C	44.6		
CN1CCc2c(sc3c2C(=O)NC(c2ccco2)N3)C1 (stereo unspecified)	1.55		
CC1CC(C)CN(C(=O)c2cccc3c2-c2ccccc2C3=O)C1 (stereo unspecified)	0.292	18.4 µM [rising, single point]	
COc1ccc(OC)c(CN2CCN(c3ccc(S(=O)(=O)N4CCCC4)cn3)CC2)c1	-16.6	7.31 µM [falling, partial curve, poor fit]	
Cc1cc(C)cc(N=c2c([N+](=O)[O-])nn(-c3cccc(Cl)c3)n2O)c1	-66.8	8.2 µM [falling, partial curve]	11.6 µM [falling, partial curve]
C=CCn1c(N2CCCCCC2)nc2c1c(=O)[nH]c(=O)n2C	80.3		
O=C1CSC(c2cn(-c3ccccc3)nc2-c2cc3ccccc3oc2=O)N1Cc1ccccc1 (stereo unspecified)		9.2 µM [rising, partial curve]	2.06 µM [rising, partial curve]
O=C(Nc1ccc(Cl)cc1C(=O)NCC1CCCO1)c1ccco1 (stereo unspecified)	0.128		
COc1ccc(C(=O)Nc2ccc(NC(=O)c3ccco3)cc2)cc1	44.6		25.9 µM [rising, single point]
CCOC(=O)C1CCN(C(=O)COc2ccc(Br)cc2Br)CC1	-46.1	4.11 µM [falling, full curve]	3.66 µM [falling, full curve]
Cc1cc(NC(=O)CSc2nc3cc(Cl)ccc3o2)no1	47.4		25.9 µM [rising, single point]
Cc1cccc(OCc2nnc(-c3ccc(F)cc3)o2)c1	3.89	3.26 µM [rising, single point]	
Cc1cccc(C(=O)Nc2ccc(N3CCN(C(=O)c4ccco4)CC3)cc2)c1	2.7	11.6 µM [falling, single point]	
Cc1cccc(NC(=O)N2CCC(NC(=O)c3ccco3)CC2)c1	-45.3	0.82 µM [falling, full curve, poor fit]	18.4 µM [falling, single point]
CCN(CC)c1ccc(/C=C(\C#N)c2nc(-c3cccs3)c(NC(C)=O)s2)cc1	-101	4.61 µM [falling, full curve]	5.17 µM [falling, full curve]
CC(C)(C)C(=O)OCC1OC(n2cnc(C(N)=O)n2)C(O)C1O (stereo unspecified)	-99.1	20.6 µM [falling, partial curve]	18.4 µM [falling, partial curve]
O=S1(=O)CCN2C=C(Br)C=C(Br)C2=N1	1.47	1.46 µM [falling, partial curve, poor fit]	
COc1ccc(C(C)(C)C)cc1NC(=O)CCCN1C(=O)CN(C)C1=O	24.5		
